Measurements from patent publication US8207212B2, “Methods and devices for epithelial protection during photodynamic therapy” (The General Hospital Corporation, priority 2003, dated 2012).
For at least one compound, name, drawing or mass did not settle the structure.

Legend:
human skin = assay: PpIX fluorescence imaging in human skin after iontophoretic transfer of ALA, with or without cooling; conditions: human skin in vivo, 2% ALA solution iontophoretically
[1] = system: rat epidermal keratinocyte (REK) cells; assay: PpIX formation in rat epidermal keratinocyte cells incubated with ALA at different temperatures; format: cell-based; conditions: for PpIX formation: 0.1 mM to 0.5 mM ALA
Protocol: Two trials of rat epidermal keratinocyte (REK) cells were incubated with 0.5 mM ALA at temperatures of 21° C. and 37° C., respectively, for varying times. […] Accordingly, a temperature gradient of about 16° C. is more than sufficient to inhibit metabolism of a photosensitizing agent in epidermal tissue surrounding a targeted treatment site.
Several trials of rat epidermal keratinocyte (REK) cells were incubated with various amounts of ALA ranging from 0.1 mM to 0.5 mM, at various temperatures ranging from 15° C. to 40° C.

## NCC(=O)CCC(=O)O [ALA, aminolevulinic acid]
Human skin; 3-hour incubation at room temperature (FIG. 5A)
  ALA-induced PpIX formation (fluorescence): significant PpIX formation
Human skin; 3-hour incubation, cooled by contact to 10-15° C. (FIG. 5A)
  ALA-induced PpIX formation (fluorescence): thermally inhibited
[1]; temperature of about 25° C. or less (FIG. 3)
  PpIX formation: significantly inhibited
[1]; temperature of about 30° C. or more (FIG. 3)
  PpIX formation: increased significantly
[1]; 0.5 mM ALA, varying times (FIG. 2)
  PpIX formation, incubation at 21° C. compared to 37° C.: significant decrease in PpIX formation
